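Vaccinia-infected cells with a two-color viral stage reporter; Venus fluorescence read on a plate reader; the cell line is not named here; timing not stated here. The test concentration is not given here. Percent change in Venus reporter signal; lower (more negative) values mean stronger inhibition of that viral stage.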

Values are in %. How 0% and 100% were set is not given here. Common to all entries: measured here: Venus reporter, other viral stage. This is a side read-out of the assay, for part of the compounds, not drawn at random.

structure,activity change (Venus) (%)
O=C(Nc1ccccc1)N1C[C@@H]2N[C@H](C1)C2c1ccc(-c2ccccc2)cc1 (some centres not stated),-29.13
C[C@H](CO)N1C[C@H](C)[C@@H](CN(C)Cc2ccccc2)Oc2ccc(NS(=O)(=O)c3ccccc3)cc2CC1=O,-28.38
C[C@H]1CN([C@@H](C)CO)S(=O)(=O)c2ccc(/C=C/c3ccccc3)cc2O[C@@H]1CN(C)C(=O)Nc1ccc(F)cc1,-84.87
Cc1ccc(S(=O)(=O)Nc2ccc3c(c2)C(=O)N([C@H](C)CO)C[C@@H](C)[C@H](CN(C)S(=O)(=O)c2cccs2)OCCCC[C@@H](C)O3)cc1,-33.39
CN1C(=O)c2cc(NC(=O)c3ccc(F)c(F)c3)ccc2OC[C@@H]2O[C@H](CC(=O)N[C@@H]3CCN(Cc4ccccc4)C3)CC[C@@H]21,-46.62
C[C@H](CO)N1C[C@H](C)[C@H](CN(C)Cc2ccc3c(c2)OCO3)Oc2c(NC(=O)Nc3ccc(C(F)(F)F)cc3)cccc2C1=O,-56.45
N#Cc1ccc(-c2ccc([C@@H]3[C@H](CO)N4C(=O)CN(C(=O)C5CC5)C[C@@H]34)cc2)cc1,-26.26
C[C@H]1CN([C@@H](C)CO)C(=O)Cc2cc(NS(C)(=O)=O)ccc2O[C@H]1CN(C)Cc1ccc(C(F)(F)F)cc1,-56.26
C[C@@H]1CN([C@@H](C)CO)C(=O)c2cccc(NC(=O)CCCCCC(=O)Nc3ccccc3N)c2O[C@@H]1CN(C)Cc1ccc(Oc2ccccc2)cc1,-37.76
C[C@@H]1CN([C@@H](C)CO)S(=O)(=O)c2ccc(C#Cc3cccnc3)cc2O[C@H]1CN(C)CC1CCCC1,-39.81
CN1c2ccc(-c3cccc(F)c3)cc2[C@@H]2[C@@H](CCN2C(=O)CC2CC2)[C@@H]1CO,-33.62
O=C(c1ccc2c(c1)OCO2)N1C[C@@H]2N[C@H](C1)C2c1ccc(-c2cccnc2)cc1 (some centres not stated),-60.35
C[C@H](CO)N1C[C@H](C)[C@H](CN(C)C(=O)Nc2cccc3ccccc23)Oc2ncc(-c3ccccc3)cc2C1=O,-31
C[C@H](CO)N1C[C@H](C)[C@H](CN(C)S(C)(=O)=O)Oc2cc(C#Cc3ccc(F)cc3)ccc2S1(=O)=O,-46.22
C[C@H]1CCCCO[C@H](CN(C)Cc2ccccc2)[C@@H](C)CN([C@@H](C)CO)C(=O)c2cc(NS(=O)(=O)c3ccc(Cl)cc3)ccc2O1,-72.59
COc1ccc2c3c(n(C)c2c1)[C@@H](CO)N(C(=O)Nc1ccc(F)cc1)CC31CN(Cc2cccnc2)C1,-38.57
C[C@H]1CN([C@@H](C)CO)C(=O)c2c(c3ccccc3n2C)-c2ccccc2CO[C@@H]1CN(C)Cc1cccc(F)c1,-52.89
CCCNC(=O)N(C)C[C@@H]1Oc2cc(C#Cc3cccc(F)c3)ccc2S(=O)(=O)N([C@@H](C)CO)C[C@@H]1C,-44.65
COCCCNC(=O)[C@]1(Cc2ccccc2CN=[N+]=[N-])N=C(c2ccc(OCCCO)cc2)O[C@@H]1c1ccccc1,-29.72
C[C@H](NC(=O)C[C@@H]1CC[C@@H]2[C@H](COC[C@H](O)CN2C(=O)Nc2cc(Cl)cc(Cl)c2)O1)c1ccccc1,-39.62
C[C@@H]1CCCCO[C@@H](CN(C)C(=O)Nc2ccc(C(F)(F)F)cc2)[C@H](C)CN([C@@H](C)CO)C(=O)c2cc(NS(C)(=O)=O)ccc2O1,-46.72
CN1C(=O)c2cc(NC(=O)c3cccc(F)c3)ccc2OC[C@@H]2O[C@H](CC(=O)NCC3CCCCC3)CC[C@@H]21,-40.77
CN1c2ccc(-c3cccc(F)c3)cc2[C@H]2[C@H](CCN2C(=O)c2cccc(F)c2)[C@H]1CO,-29.98
COc1ccc(CN(C)C[C@H]2OCCCC[C@@H](C)Oc3ccc(NC(=O)NC(C)C)cc3C(=O)N([C@H](C)CO)C[C@H]2C)cc1,-24.64
CC(=O)N(C)C[C@H]1Oc2cc(C#Cc3ccccc3F)ccc2S(=O)(=O)N([C@H](C)CO)C[C@@H]1C,-21.56
COc1ccc(C#Cc2ccc([C@@H]3[C@@H](CO)N4CCCCN(S(=O)(=O)c5cn(C)cn5)C[C@@H]34)cc2)cc1,-48.27
COc1ccc2c3c([nH]c2c1)[C@H](CO)N(C(=O)Nc1ccc(F)cc1)CC31CCN(C(=O)c2ccccc2F)CC1,-29.95
COc1ccc(S(=O)(=O)N(C)C[C@@H]2Oc3cc(C#CC4CCCC4)ccc3S(=O)(=O)N([C@H](C)CO)C[C@H]2C)cc1,-39.31
COc1ccc(CN(C)C[C@H]2Oc3ccc(NS(=O)(=O)c4ccc(F)cc4)cc3CC(=O)N([C@@H](C)CO)C[C@H]2C)cc1,-33.57
CO[C@@H]1CN(C)C(=O)c2ccc(NC(=O)Nc3cc(Cl)cc(Cl)c3)cc2OC[C@H](C)NC[C@@H]1C,-62.3
C[C@H]1CCCCO[C@@H](CN(C)Cc2ccc3c(c2)OCO3)[C@@H](C)CN([C@@H](C)CO)C(=O)c2cc(NC(=O)Nc3ccccc3)ccc2O1,-53.58
C[C@@H]1CN([C@H](C)CO)C(=O)c2cc(NC(=O)CCC(F)(F)F)ccc2O[C@@H](C)CCCCO[C@@H]1CN(C)Cc1ccc(C(F)(F)F)cc1,-57.52
CCc1cnc(N2[C@@H](C#N)[C@@H](c3ccc(C#CCC4CCCC4)cc3)[C@@H]2CO)s1,-51.27
Cc1noc(C)c1S(=O)(=O)N(C)C[C@@H]1OCCCC[C@H](C)Oc2ccc(NS(=O)(=O)c3ccccc3)cc2C(=O)N([C@H](C)CO)C[C@@H]1C,-31.56
C[C@@H]1CCCCO[C@H](CN(C)Cc2ccccc2)[C@H](C)CN([C@H](C)CO)C(=O)c2cc(NC(=O)Cc3ccccc3)ccc2O1,-53.55

Some entries from above, unchanged:

| structure | activity change (Venus) (%) |
|---|---|
| `C[C@@H]1CN([C@@H](C)CO)S(=O)(=O)c2ccc(C#Cc3cccnc3)cc2O[C@H]1CN(C)CC1CCCC1` | -39.81 |
| `CO[C@@H]1CN(C)C(=O)c2ccc(NC(=O)Nc3cc(Cl)cc(Cl)c3)cc2OC[C@H](C)NC[C@@H]1C` | -62.3 |
| `C[C@H]1CN([C@@H](C)CO)C(=O)Cc2cc(NS(C)(=O)=O)ccc2O[C@H]1CN(C)Cc1ccc(C(F)(F)F)cc1` | -56.26 |

Data taken from PubChem BioAssay AID1053133, deposited by Broad Institute (2014).